Data as given in PubChem BioAssay AID1259425 (University of Nebraska Medical Center, 2018)
In all, the deposit lists about 14,000 reagents; this is a random part of them. Further read-outs or replicates are left out here. No sequences are given here. The record does not give: the time to read-out.

Aim: 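Compare each knockdown with KSR1 silencing using changes in marker transcripts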 (primary screen)
System: HCT116 human colon cancer cells
Knock-down reagent: siRNA pool against human genes, 50 nM siRNA
Read-out: 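mRNA of six signature genes measured together by branched-DNA assay after 50 nM siRNA pool, blank removed, divided by geometric mean of two housekeeping genes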
Reading the numbers: BNIP3L mRNA: higher = more BNIP3L transcript after knockdown; NDRG1 mRNA: higher = more NDRG1 transcript after knockdown; BNIP3 mRNA: higher = more BNIP3 transcript after knockdown

| target | BNIP3L mRNA, set 1 | NDRG1 mRNA, set 1 | BNIP3 mRNA, set 1 |
| --- | --- | --- | --- |
| MARK1 | 0.0403 | 0.168 | 0.299 |
| CIITA | 0.111 | 0.147 | 0.358 |
| TNFRSF10B | 0.187 | 0.196 | 0.303 |
| ANKRD49 | 0.0581 | 0.188 | 0.272 |
| ADCYAP1 | 0.0904 | 0.091 | 0.221 |
| MUC3A | 0.0815 | 0.115 | 0.313 |
| TLR6 | 0.155 | 0.498 | 0.574 |
| IFIT1 | 0.142 | 0.246 | 0.262 |
| INHBC | 0.0801 | 0.236 | 0.286 |
| CCIN | 0.122 | 0.31 | 0.286 |
| BRMS1 | 0.26 | 0.884 | 0.602 |
| POU4F1 | 0.0686 | 0.234 | 0.317 |
| HEATR1 | 0.127 | 0.284 | 0.469 |
| DDA1 | 0.14 | 0.0422 | 0.252 |
| DOCK4 | 0.107 | 0.123 | 0.218 |
| CLK3 | 0.0785 | 0.226 | 0.314 |
| RBPJL | 0.155 | 0.233 | 0.311 |
| PRSS16 | 0.119 | 0.235 | 0.297 |
| NKX6-2 | 0.271 | 0.526 | 0.611 |
| C19orf53 | 0.0904 | 0.138 | 0.333 |

Looked up above:
For “NDRG1 mRNA, set 1”, TNFRSF10B shows 0.196
Value for BRMS1 under “NDRG1 mRNA, set 1”: 0.884
